Data reported in article PMC4564764, “Collagen Q and anti-MuSK autoantibody competitively suppress agrin/LRP4/MuSK signaling” (Scientific Reports, 2015).

By UniProt entry, the sequences of proteins in these tests, tags left out. Where a name states a change or a piece, a line headed by the entry shows the natural chain unless it says otherwise.
UniProt O15146: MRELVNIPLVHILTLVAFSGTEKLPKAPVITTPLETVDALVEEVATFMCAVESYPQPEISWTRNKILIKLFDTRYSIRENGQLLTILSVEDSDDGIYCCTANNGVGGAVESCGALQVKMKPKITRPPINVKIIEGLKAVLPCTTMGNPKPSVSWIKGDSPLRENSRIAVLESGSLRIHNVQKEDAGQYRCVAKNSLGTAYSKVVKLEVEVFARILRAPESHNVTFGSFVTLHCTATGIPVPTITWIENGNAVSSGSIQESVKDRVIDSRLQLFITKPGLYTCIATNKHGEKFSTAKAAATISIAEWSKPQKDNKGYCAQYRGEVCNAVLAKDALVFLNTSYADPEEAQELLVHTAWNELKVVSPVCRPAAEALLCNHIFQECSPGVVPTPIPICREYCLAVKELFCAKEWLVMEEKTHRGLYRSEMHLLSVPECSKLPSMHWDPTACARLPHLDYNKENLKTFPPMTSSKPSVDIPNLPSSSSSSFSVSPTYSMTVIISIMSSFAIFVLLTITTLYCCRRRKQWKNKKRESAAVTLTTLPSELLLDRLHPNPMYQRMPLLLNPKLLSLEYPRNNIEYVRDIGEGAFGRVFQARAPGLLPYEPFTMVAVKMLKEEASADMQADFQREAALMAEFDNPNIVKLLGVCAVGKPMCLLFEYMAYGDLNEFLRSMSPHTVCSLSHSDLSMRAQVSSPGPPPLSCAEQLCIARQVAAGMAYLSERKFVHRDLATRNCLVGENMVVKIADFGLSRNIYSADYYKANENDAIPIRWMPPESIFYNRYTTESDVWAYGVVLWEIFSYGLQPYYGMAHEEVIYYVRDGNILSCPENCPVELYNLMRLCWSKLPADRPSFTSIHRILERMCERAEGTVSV

Legend:
Assay in all cases: co-IP; HEK293 cotransfected with wild-type or domain-deleted phMUSKect-myc and pFLAG-COLQ; lysis in 50 mM HEPES pH 7.0, 150 mM NaCl, 0.5% NP-40; IP with anti-myc (9E10) and Dynabeads Protein G; blot with anti-FLAG-HRP
[1] = biological target: hMuSKect-myc lacking the C6 box (ΔC6) (human) (UniProt O15146)
[2] = biological target: hMuSKect-myc lacking immunoglobulin-like domain 1 (ΔIg1) (human) (UniProt O15146)
[3] = biological target: hMuSKect-myc lacking immunoglobulin-like domain 4 (ΔIg4) (human) (UniProt O15146)
[4] = biological target: hMuSKect-myc lacking immunoglobulin-like domain 3 (ΔIg3) (human) (UniProt O15146)
[5] = biological target: hMuSKect-myc lacking immunoglobulin-like domain 2 (ΔIg2) (human) (UniProt O15146)

binding [1]: binds | binding [2]: no binding | binding [3]: no binding | binding [4]: binds | binding [5]: binds
B1: FLAG-ColQ (human collagen Q with FLAG inserted between codons 35 and 36) (protein, UniProt Q9Y215 23-455)
chain: QPTFINSVLPISAALPSLDQKKRGGHKACCLLTPPPPPLFPPPFFRGGRSPLLSPDMKNLMLELETSQSPCMQGSLGSPGPPGPQGPPGLPGKTGPKGEKGELGRPGRKGRPGPPGVPGMPGPIGWPGPEGPRGEKGDLGMMGLPGSRGPMGSKGYPGSRGEKGSRGEKGDLGPKGEKGFPGFPGMLGQKGEMGPKGEPGIAGHRGPTGRPGKRGKQGQKGDSGVMGPPGKPGPSGQPGRPGPPGPPPAGQLIMGPKGERGFPGPPGRCLCGPTMNVNNPSYGESVYGPSSPRVPVIFVVNNQEELERLNTQNAIAFRRDQRSLYFKDSLGWLPIQLTPFYPVDYTADQHGTCGDGLLQPGEECDDGNSDVGDDCIRCHRAYCGDGHRHEGVEDCDGSDFGYLTCETYLPGSYGDLQCTQYCYIDSTPCRYFT

Results are given in words; binding and its absence hold for the method and conditions named. In cells and extracts the contact can be indirect. For some assays here: Binding can be weak; no strength is given. Tags and fused reporters may be left off the sequences shown.
